# Assay results: patent US10172835B2, “Anticancer agent composition” (J-Pharma Co., Ltd., priority 2014, dated 2019)
# For some assays here: At least one compound was matched to its structure with a doubt left. Some results were stated once for a whole list of compounds, not compound by compound.
# Experiments:
# Assay type in all cases: cell-based, murine
# [1] = system: KO99L cells (tPTEN−/− tumor cell line); assay: WST-1 cell viability assay on KO99L cells
# Experimental: Two different assays were employed: i) In a 96-well plate format, cells (4.0±0.1×10^4 per well; 100 μL) were incubated with effectors (48 h, 37° C.; n=4 per experiment) and then WST-1 reagent (10 μL; Roche Diagnostics) added to each well of 96-well plates, incubated, and the formazan production was measured at 490 nm; and ii) cells (2.0±0.1×10^4 per well; 100 μL) were incubated with effectors (48 h, 37° C.; n=4 per experiment) and then bromodeoxyuridine reagent (10 μL/well; Roche Diagnostics) was added to each well and incubated (8 h, 37° C.). The cells were then fixed, denatured and incubated with anti-BrdU-conjugated with peroxidase (POD) antibody (100 μL/well). Colorimetric substrate (TMB: tetramethyl-benzidine; 100 μL/well) was added and BrdU incorporation quantified via optical density measurement (450 nm) which corresponds to DNA synthesis and proliferating cells.
# KO99L cells = assay: Combination studies with COMPOUND-JP, WST-1 viability, Chou-Talalay combination index; settings: 48 h, suboptimal concentrations, in combination with COMPOUND-JP
# caspase 3 = assay: Western blot of caspase 3 activation and PARP cleavage in primary tPTEN−/− tumor cells (KO#732); settings: primary KO#732 cells; COMPOUND-JP 5.0, 10.0 μM; PI-103 10.0 μM; rapamycin 10.0 nM; 2.0-18.0 h
# Experimental: (§1) Cell extracts were prepared using a cell lysis buffer (50 mM HEPES, pH 7.4, 150 mM NaCl, 20 mM EDTA, 100 mM NaF, 10 mM Na3VO4, 0.5% nonyl phenoxypolyethoxylethanol (NP40) supplemented with a cocktail of protease inhibitors. After SDS-PAGE separation and transfer to nitrocellulose immunoblotting was performed using the following antibodies against: Akt (Cell Signaling Technologies, #9272), CHOP (#2895), cleaved caspase 3 (#9664), c-Myc (#9402), eIF2a (#9721), 4EBP1 (#9644), LC3A/B (#12741), PARP (#9542), pJnk (T183/Y185) (#9251), pSer235-236-S6RP (#4856), pSer473-Akt (#9271), pSer65-4EBP1 (#9451) and S6RP (#2217); Bax (Sigma-Aldrich, B8429); PUMA (Abcam, ab54288); Bak (Millipore, 06536); ATF4 (Santa Cruz Biotechnologies, sc200), GADD34 (sc8327), Hsp60 (sc-1722), Hsp90 (sc-13119) and XBP1 (sc-7160); ATF6 (Imgenex, IMG-273).
# c-myc = assay: Western blot of c-myc levels, KO99L cells; settings: COMPOUND-JP 10.0 μM 2.0-24 h; Velcade 8 nM 24 h; KU0063794 10.0 μM; MK-2206 10.0 μM; rapamycin 100 nM
# Experimental: as §1
compound,measurement,setting,value
"NC1(C(=O)O)CC2CCC1C2 (centres unmarked) [BCH, 2-Aminobicyclo-(2,2,1)-heptane-2-carboxylic acid, reference compound]",concentrations required to affect the survival of tPTEN−/− cells,[1],> 1.0 mM
"CC(C)C[C@@H](N)C(=O)O [D-Leucine, D-leucine, reference compound]",concentrations required to affect the survival of tPTEN−/− cells,[1],> 1.0 mM
C[C@@H]1C[C@H]2[C@@H]3CCC4=CC(=O)C=C[C@]4(C)[C@@]3(F)[C@@H](O)C[C@]2(C)[C@@]1(O)C(=O)CO [dexamethasone],combination effect with COMPOUND-JP on metabolic activity/cell survival (Combination Index),KO99L cells,synergy
CO[C@H]1C[C@@H]2CC[C@@H](C)[C@@](O)(O2)C(=O)C(=O)N2CCCC[C@H]2C(=O)O[C@H]([C@H](C)C[C@@H]2CC[C@@H](O)[C@H](OC)C2)CC(=O)[C@H](C)/C=C(\C)[C@@H](O)[C@@H](OC)C(=O)[C@H](C)C[C@H](C)/C=C/C=C/C=C/1C [rapamycin],caspase 3 processing and PARP cleavage (apoptosis),caspase 3,had no effect
same,c-myc protein level,c-myc,did not affect c-myc levels
